Source: patent publication US20260209332A1 (SORRISO PHARMACEUTICALS, published 2026)
These are yes or no findings as the source states them, for the method shown. Some results given as binding are weak or reduced against the parent protein; the word gives no strength.

Chains of the proteins cited; added tags and fusions are not shown. Lines headed by an entry give the natural chain unless they say otherwise; changes in a name come on top.
UniProt Q9NPF7: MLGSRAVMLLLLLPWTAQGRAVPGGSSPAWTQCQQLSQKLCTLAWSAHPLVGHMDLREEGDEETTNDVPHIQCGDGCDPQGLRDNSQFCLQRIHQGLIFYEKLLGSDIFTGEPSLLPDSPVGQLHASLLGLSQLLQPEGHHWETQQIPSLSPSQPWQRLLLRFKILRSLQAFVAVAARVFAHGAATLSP

How the values were obtained:
[1] = target: interleukin-23 (IL-23) (UniProt Q9NPF7); assay: IL-23/IL-23R interference ELISA; blocked interaction: IL-23 with IL-23 receptor; arm liberated by trypsin
[2] = target: interleukin-23 (IL-23) (UniProt Q9NPF7); assay: IL-23/IL-23R ELISA
[3] = target: interleukin-23 (IL-23) (UniProt Q9NPF7); assay: IL-23/IL-23 receptor interference ELISA
[4] = target: interleukin-23 (IL-23) (UniProt Q9NPF7); assay: summary of the examples (ELISA)
[5] = target: interleukin-23 (IL-23) (UniProt Q9NPF7); assay: IL-23/IL-23R interference ELISA; blocked interaction: IL-23 with IL-23 receptor
[6] = target: interleukin-23 (IL-23) (UniProt Q9NPF7); assay: IL-23/IL-23R ELISA, 4 h sample in pooled human fecal supernatant against the 0 h sample, N=3
[7] = target: interleukin-23 (IL-23) (UniProt Q9NPF7); assay: IL-23/IL-23R ELISA, 4 h sample in pooled human fecal supernatant against the 0 h sample, N=3; the text speaks of the dual inhibitor and its cleavage products

binding [1]	binding [2]	binding [3]	binding [4]	binding [5]	binding [6]	binding [7]	Binder
binds	binds	binds	binds				liberated anti-IL-23 monomer arm of TNF-alpha/IL-23 dual inhibitor (VHH, Cleavage product; carries the remnant of the linker at its N-terminus; also called liberated-IL-23) VHH: EVQLVESGGGQVQPGGSLSLSCESSVSIWSFKVMGWFRQVPGKQRELVATITTGGSPDYSDSVKGRFTISRDYDKRTLYLQMNSLKPEDTAVYYCAGRLWAHITSSGHDVWGQGTQVTVSS
		binds		binds	binds		IL-23 inhibitor (anti-IL-23 single domain antibody, parent monomer) (VHH, Produced in yeast; also called IL-23: D1E ID-L253T) VHH: EVQLVESGGGQVQPGGSLSLSCESSVSIWSFKVMGWFRQVPGKQRELVATITTGGSPDYSDSVKGRFTISRDYDKRTLYLQMNSLKPEDTAVYYCAGRLWAHITSSGHDVWGQGTQVTVSS
	binds	binds		binds		binds	TNF-alpha/IL-23 dual inhibitor (bispecific anti-TNF-alpha/anti-IL-23 domain antibody) (bispecific antibody, Produced and purified from yeast; also called FA1K) DVQLVESGGGLVQPGGSLKLSCAASGFDFSSHWMYWVRQAPGKELEWLSEINTNGLITHYGDSVKGRFTVSRNNAANKMYLELTRLEPEDTALYYCARNQHGLNKGQGTQVTVSSGGGGSGGGGSKGGGGSGGGGSEVQLVESGGGQVQPGGSLSLSCESSVSIWSFKVMGWFRQVPGKQRELVATITTGGSPDYSDSVKGRFTISRDYDKRTLYLQMNSLKPEDTAVYYCAGRLWAHITSSGHDVWGQGTQVTVSS
